Source: PubChem BioAssay AID504774 (Drosophila RNAi Screening Center, 2011)
The screen tested about 23,000 reagents; shown is a random part of those that have a named target and a result. 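Values are quantile-normalised luminescence on an arbitrary scale; higher means more cells surviving MMS.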 The numbers tell different reagents against one gene apart. A plus sign joins genes that one reagent is predicted to hit. Not all columns of the deposit are shown.

Screen: 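Knock-downs that shift viability of MMS-exposed cells relative to untreated ones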 (primary screen)
Cells: Drosophila Kc167 cells
Reagent: long dsRNA against Drosophila genes, about 0.25 µg dsRNA per well
Duration: about 6 days: 3 days knock-down, then 3 days with or without MMS
Treatment: methyl methanesulphonate 0.004% (w/v) for 3 days after knock-down
Measurement: 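Viability in wells given MMS, read as ATP luminescence, normalised by quantiles plate by plate and averaged across replicates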
Reading the numbers: mean viability with MMS and viability with MMS: higher = more surviving cells after MMS

predicted target | dsRNA no. | mean viability with MMS | viability with MMS, replicate 1
CG34224 | 1 | 3.56e6 | 3.96e6
TyrRS | 1 | 3.38e6 | 3.84e6
fng | 1 | 3.61e6 | 4.06e6
fng | 2 | 3.49e6 | 4.02e6
fng | 3 | 3.55e6 | 4.10e6
CG13252 | 1 | 3.51e6 | 4.03e6
att-ORFB + DPCoAC | 1 | 3.59e6 | 4.06e6
Alh | 1 | 2.98e6 | 3.62e6
Alh | 2 | 3.36e6 | 3.84e6
Alh | 3 | 3.40e6 | 3.92e6
Arc42 | 1 | 3.52e6 | 3.98e6
Arc42 | 2 | 3.53e6 | 3.91e6
JYalpha (retired record) + JYalpha | 1 | 3.52e6 | 3.97e6
sxc | 1 | 3.83e6 | 4.34e6
Atac3 | 1 | 3.80e6 | 4.30e6
CG12828 | 1 | 3.62e6 | 4.07e6
CG2901 | 1 | 3.73e6 | 4.06e6
Dph4 | 1 | 3.53e6 | 4.00e6
CG33958 | 1 | 3.57e6 | 4.06e6
CG33958 | 2 | 3.58e6 | 4.03e6
CG14342 | 1 | 3.61e6 | 4.04e6
caly | 1 | 3.47e6 | 3.96e6
CG9117 | 1 | 3.43e6 | 3.94e6
IA-2 | 1 | 3.67e6 | 4.19e6
IA-2 | 2 | 3.60e6 | 3.88e6
IA-2 | 3 | 3.66e6 | 4.10e6
CG2680 | 1 | 3.48e6 | 4.00e6
mnb | 1 | 3.28e6 | 3.69e6
mnb | 2 | 3.40e6 | 3.89e6
mnb | 3 | 2.60e6 | 2.57e6
Gr57a | 1 | 3.57e6 | 4.09e6
CG31689 | 1 | 3.51e6 | 3.96e6
Ppt1 | 1 | 3.44e6 | 3.85e6
CG6277 | 1 | 3.48e6 | 3.94e6
RpS25 | 1 | 3.18e6 | 3.77e6
CG33108 | 1 | 3.65e6 | 4.17e6
Dbp21E2 | 1 | 3.80e6 | 4.12e6
alpha-Man-IIb | 1 | 3.67e6 | 4.22e6
daw | 1 | 3.53e6 | 3.97e6
Unc-76 | 1 | 3.50e6 | 4.04e6
Unc-76 | 2 | 3.63e6 | 4.18e6
CG7031 | 1 | 2.88e6 | 3.58e6
CG7031 | 2 | 3.48e6 | 3.93e6
Gr61a | 1 | 3.51e6 | 3.93e6
CG31627 | 1 | 3.63e6 | 4.07e6
CG13247 | 1 | 3.70e6 | 4.18e6
CG1927 | 1 | 3.56e6 | 4.01e6
coil | 1 | 3.63e6 | 4.19e6
Acbp5 | 1 | 3.69e6 | 4.12e6
Srrm1 | 1 | 3.50e6 | 3.91e6
Vha16-5 | 1 | 3.41e6 | 3.59e6
bsk | 1 | 3.88e6 | 4.24e6
Upf2 | 1 | 3.53e6 | 3.82e6
CG32213 + CG12519 + 825-Oak + 1 more | 1 | 3.61e6 | 4.16e6
CG4757 | 1 | 3.51e6 | 4.05e6
Sf3a2 | 1 | 3.10e6 | 3.61e6
TpnC4 | 1 | 3.46e6 | 3.86e6
Stat92E | 1 | 3.57e6 | 4.06e6
Pisd | 1 | 3.51e6 | 3.92e6
PlexB | 1 | 3.54e6 | 4.00e6
CG34273 | 1 | 3.56e6 | 4.09e6
Spp | 1 | 3.80e6 | 4.19e6
edin | 1 | 3.53e6 | 4.15e6
CG16772 | 1 | 3.79e6 | 4.23e6
CG31921 | 1 | 3.53e6 | 4.22e6
CG5445 | 1 | 3.25e6 | 3.66e6
CG5445 | 2 | 3.65e6 | 4.08e6
Mtr3 | 1 | 3.48e6 | 3.91e6
Mvl | 1 | 3.46e6 | 3.93e6
CG6244 | 1 | 3.64e6 | 4.00e6
Reg-2 | 1 | 3.22e6 | 3.73e6
aph-1 | 1 | 3.45e6 | 4.03e6
dome | 1 | 3.35e6 | 3.78e6
Psf2 | 1 | 3.81e6 | 4.49e6
anchor | 1 | 3.62e6 | 4.17e6
snoRNA:U31:54Ec + snoRNA:snR38:54Eb + snoRNA:U27:54Eb + 8 more | 1 | 3.53e6 | 4.16e6
ppk10 | 1 | 3.51e6 | 3.86e6
CG4041 | 1 | 3.47e6 | 3.94e6
SMC3 | 1 | 3.65e6 | 4.21e6
Taf6 | 1 | 3.36e6 | 3.74e6
GrlHz | 1 | 3.80e6 | 4.11e6
CG13689 | 1 | 3.48e6 | 3.81e6
Hesr | 1 | 3.64e6 | 4.14e6
Cyp6a20 | 1 | 3.43e6 | 3.71e6
CG11790 | 1 | 3.42e6 | 3.79e6
CG18081 | 1 | 3.51e6 | 3.99e6
CatB | 1 | 3.56e6 | 4.17e6
